# Results are given in words; binding and its absence hold for the method and conditions named. A result given as binding can be weak or reduced; the word gives no strength. For some assays here: Binding seen in cells or lysates may run through a third protein.
# Protein sequences, listed by entry. Tags and fused reporters are not part of them. Lines headed by an entry give the natural chain unless they say otherwise; changes in a name come on top.
# UniProt P05305: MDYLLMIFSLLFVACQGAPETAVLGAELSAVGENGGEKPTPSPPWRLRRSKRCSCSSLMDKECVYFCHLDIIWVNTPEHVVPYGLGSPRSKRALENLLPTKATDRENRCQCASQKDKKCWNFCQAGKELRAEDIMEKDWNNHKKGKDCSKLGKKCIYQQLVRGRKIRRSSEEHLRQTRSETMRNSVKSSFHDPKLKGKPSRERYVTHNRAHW
# How the values were obtained:
# [1] = target: GST-ET-1 (UniProt P05305); assay: pull-down; in vitro pull-down with purified recombinant proteins (GST-ET-1, UFL1 and DDRGK1); both purified
# [2] = target: Endothelin-1 (UniProt P05305); assay: co-IP; mutual co-immunoprecipitation in HEK293T cells, western blot
Substance,binding [1],binding [2]
UFL1 (purified recombinant) (from UniProt O94874-1 1-794),binds,
UFL1 (from UniProt O94874-1 1-794),,binds

# From PMC9478483
